Test results as given in PubChem BioAssay AID595 (National Center for Advancing Translational Sciences (NCATS), 2007).
The whole screen tested about 71,000 compounds, of which about 310 (0.44%) were called active. Inconclusive means that the source gave no clear call. Such entries were picked first, then a sample of the others. Calls come from the whole dose curve; as a rule, active = well fitted curve in either direction with a large enough effect; inconclusive = small, poorly fitted or top-dose-only effect, or another doubt; inactive = flat fitted curve, though single readings scatter. Potencies beside an inconclusive call are fits to weak or partial responses and may not hold up.

These molecules were tested on Hsp90 C-terminal peptide / TPR2A (Hop) interaction, human (assay: qHTS Assay for Disrupters of an Hsp90 Co-Chaperone Interaction). Settings: AlphaScreen TPR2A-His6 binding biotin-Hsp90 C-terminal peptide; activity change, negative = inhibition: at 57 µM (top of the series) unless noted.
% is set by controls: 0 for no effect and ±100 for the full control effect; potency is the fitted concentration of half-maximal effect.

| Compound | activity change, negative = inhibition | Potency |
| --- | --- | --- |
| Cc1ccc2nc(-c3cccnc3)oc2c1 | inactive: 2.51% |  |
| CCOC(=O)c1ccccc1N1C(=O)CSC1=S | inconclusive: 54.2% [at 11 µM] |  |
| Nc1ncnc2nn([C@H]3O[C@@H](CO)[C@@H](O)[C@H]3O)nc12 | inactive: -4.71% [at 11 µM] |  |
| Cc1ccc(C)c(C(=O)COC(=O)c2ccc(Br)o2)c1 |  | inconclusive: 31.6 µM [activator, single point] |
| O=C1c2ccc(Oc3ccc4c(c3)C(=O)N(CCCCO)C4=O)cc2C(=O)N1CCCCO | inactive: -3.65% |  |
| Cc1cccc2cc(CN(CCCO)C(=O)Nc3ccc(Cl)cc3)c(=O)[nH]c12 | inactive: -3.35% |  |
| COc1ccc(-c2nc(CSCC(=O)N3CCC(C(N)=O)CC3)c(C)o2)cc1OC | inconclusive: 42.5% |  |
| c1ccc(OCCSc2nnnn2C2CCCCC2)cc1 |  | inconclusive: 39.8 µM [activator, single point] |
| Cc1cccc(CNc2ncncc2-c2ccccc2C(F)(F)F)c1 | inactive: -2.31% |  |
| CCC/C=C(\CCC)C(NC(=O)c1ccccc1)c1ccccc1 (configuration not stated) | inconclusive: 70.1% |  |
| CSc1nnc2n(-c3ccccc3)c(=O)c3c4c(sc3n12)CCC4 | inactive: -4.5% |  |
| Clc1ccc(CSc2ncnc3c2ncn3[C@@H]2CCCCO2)cc1 | inactive: -0.497% [at 11 µM] |  |
| CCCC[C@@H]1C[C@H]1C(NS(=O)(=O)c1cccc2cccnc12)c1ccc(-c2ccccc2)cc1 (some centres not stated) | inactive: -5.51% |  |
| COCC(=O)Nc1ccc(Nc2ccccc2)cc1 | inactive: -23.2% |  |
| O=c1cc(-c2ccccc2)oc2cc(O)c(O)c(O)c12 | inconclusive: -1.14% |  |
| CC(C)(C)c1ccc(O)c(CN(Cc2cc(C(C)(C)C)ccc2O)c2ccccc2)c1 | inactive: -1.95% [at 11 µM] |  |
| COc1ccc(C2C(C(=O)c3sc(C)nc3C)=C(O)C(=O)N2CCCn2ccnc2)cc1 (configuration not stated) |  | inconclusive: 31.6 µM [inhibitor, single point] |
| CCOc1cc2[nH]c(=O)n(CC3CCC(C(=O)NCCCOC)CC3)c(=O)c2cc1OCC (configuration not stated) | inconclusive: 55.4% |  |
| O=C(COC(=O)c1ccco1)Nc1nc2ccccc2s1 | inconclusive: 46.1% |  |
| C[Si](C)(c1ccc(C(=O)O)cc1)c1ccc(C(=O)O)cc1 | inactive: 0.072% [at 11 µM] |  |
| NC(N)=N/N=C(/c1ccccc1)c1ccc(O)cc1O | inactive: -2.39% [at 11 µM] |  |

| Compound | activity change, negative = inhibition | Potency |
| --- | --- | --- |
| COc1ccc(CC(=O)Nc2ccc(-c3noc(COc4ccccc4C)n3)cc2)cc1 | inactive: -0.552% |  |
| CCOC(=O)Cc1nnc(NC(=O)Nc2ccccc2)s1 |  | inconclusive: 31.6 µM [inhibitor, single point] |
| Nc1c(C(=O)NCc2ccco2)nnn1-c1ccccc1 | inconclusive: 42.3% |  |
| COc1cc(/C=c2\sc3nc(-c4ccncc4)nn3c2=O)ccc1OC(C)=O | inconclusive: 34.8% |  |
| O=C(c1ccccc1)c1ccc(OCC(O)CN2CCCCC2)cc1 (configuration not stated) | inactive: -2.53% |  |
| CC12CCCCC1c1ccccc1C(=NCC(=O)O)N2 (configuration not stated) | inconclusive: 55.4% |  |
| N#C/C(=C\c1ccc(O)c(O)c1)C(=O)NCCc1ccccc1 |  | inconclusive: 12.6 µM [inhibitor, partial curve] |
| Fc1cccc2sc(Nc3nnc(-c4ccccc4)o3)nc12 | inactive: 4.58% |  |
| O=C(CC1Nc2ccccc2NC1=O)c1ccccc1 (configuration not stated) | inactive: 8.69% |  |
| Cc1ccc(S(=O)(=O)N(Cc2ccc(F)cc2)Cc2ccco2)cc1 |  | inconclusive: 20 µM [activator, single point] |
| COc1ccc(CN2CCN(C(=O)CC(C)C)CC2)cc1OC | inconclusive: 37.6% |  |
| O=c1[nH]c(CSc2nnc(-c3ccco3)n2-c2ccccc2)nc2sc3c(c12)CCC3 | inactive: -7.53% |  |
| Cc1cc(N)n2nc(-c3ccccc3)cc2n1 | inactive: -3.04% |  |
| CC(=O)N1CCC2(CC1)CN(c1ccccc1)C2 | inconclusive: 62.7% |  |
| O=C(Oc1ccccc1)N1CCC2(CCCN(c3ccccc3)C2)CC1 |  | inconclusive: 25.1 µM [activator, single point] |
| COc1ccc2nc(NS(=O)(=O)c3ccc(NC(C)=O)cc3)sc2c1 | inconclusive: 81.5% |  |
| CCOC(=O)CNc1c(-c2ccc(O)cc2)nc2ccccn12 | inactive: -1.52% |  |
| CCOc1ccc(-c2nnc3sc(COc4ccc(Cl)cc4)nn23)cc1 | inactive: -2.18% |  |
| O=C(COn1nnc2ccc(C(F)(F)F)cc21)Nc1nnc(-c2ccccc2)o1 | inconclusive: 34.2% |  |
| O=C(c1ccco1)N1CCC2(CCCN(c3cccc(-c4ccccc4)c3)C2)CC1 |  | inconclusive: 25.1 µM [inhibitor, single point] |
| CCCOc1ccc(NC(=O)C2CC(=O)N3CCCN=C3S2)cc1 (configuration not stated) |  | inconclusive: 25.1 µM [activator, single point] |

| Compound | activity change, negative = inhibition | Potency |
| --- | --- | --- |
| CC1CN(C(=O)Nc2ccc3snnc3c2)c2ccccc21 (configuration not stated) | inconclusive: 47.9% [at 2.3 µM] |  |
| COc1ccccc1NC(=O)C1(C)Cc2ccccc2C(=O)O1 (configuration not stated) | inconclusive: 46.8% [at 2.3 µM] |  |
| CC1(C)Cc2cccc(OCC(O)CNCc3ccccn3)c2O1 (configuration not stated) |  | inconclusive: 25.1 µM [inhibitor, partial curve] |
| Cc1noc(C)c1-c1ccc2ncnc(NCCN3CCOCC3)c2c1 | inactive: -4.9% |  |
| CC(C)CCNC(=O)CN(C(=O)Cn1nnc(-c2ccc(F)cc2)n1)C1CCCC1 | inconclusive: 46% |  |
| O=C(O)/C=C\c1c2ccc(=O)c(O)c-2oc2c(O)c(O)ccc12 |  | inconclusive: 3.16 µM [inhibitor, partial curve] |
| CCOC(=O)Oc1c(OC)cc(C(=O)O[C@H]2C[C@H]3CN4CCc5c([nH]c6cc(OC)ccc56)[C@@H]4C[C@H]3[C@@H](C(=O)OC)[C@@H]2OC)cc1OC |  | inconclusive: 15.8 µM [inhibitor, single point] |
| O=S1(=O)CCN(Cc2ccccn2)CC1 | inactive: -4.74% [at 11 µM] |  |
| N#Cc1nc(COc2ccc(Cl)cc2Cl)oc1N1CCOCC1 |  | inconclusive: 25.1 µM [inhibitor, partial curve] |
| O=C(O)CCCNc1cc(N2CCC3(CC2)OCCO3)c2noc3c2c1C(=O)c1ccccc1-3 |  | active: 3.16 µM |
| O=C(O)CCNS(=O)(=O)c1ccccc1 | inconclusive: 48.6% |  |
| COc1cc(S(=O)(=O)N2CCN(c3ccccc3F)CC2)c(OC)cc1Cl | inconclusive: 61.1% |  |
| COC(=O)c1ccccc1NC(=O)CNc1cc(Cl)ccc1N1CCOCC1 | inconclusive: 23.3% |  |
| Cc1ccc2c(c1)CCCN2C(=O)c1ccc2c(c1)OCO2 | inconclusive: 43.8% |  |
| CN(C)c1ncc2nc(CCc3ccccc3)c(=O)n(C[C@H]3CCCO3)c2n1 |  | inconclusive: 31.6 µM [activator, single point] |
| COc1ccc(CCNC(=O)c2ccc(CNc3c(N4CCOCC4)c(=O)c3=O)cc2)cc1OC | inconclusive: 33.8% |  |
| c1ccc(C2(Cn3ccc4ccccc43)OCCO2)cc1 |  | inconclusive: 31.6 µM [activator, single point] |
| COc1cccc(Cn2c(=O)c(-c3cc(F)cc(F)c3)nc3cnc(N4CCN(C)CC4)nc32)c1 | inconclusive: 103% |  |
| O=C(NCC(=O)N(Cc1ccc(F)cc1)C(C(=O)NC1CCCC1)c1ccco1)c1ccco1 (configuration not stated) | inactive: -0.813% |  |
| O=C(c1ccc(F)cc1)c1ccc(N2CCCC2)cc1 |  | inconclusive: 25.1 µM [activator, single point] |
| CCCn1c(SCC(=O)Nc2ccccc2C(=O)OC)nc2c1c(=O)n(C)c(=O)n2C | inactive: 0.754% |  |

| Compound | activity change, negative = inhibition | Potency |
| --- | --- | --- |
| CS(=O)(=O)N1CCC2(CC1)CN(Cc1nccs1)C2 |  | inconclusive: 31.6 µM [inhibitor, partial curve] |
| Cc1ccc2[nH]c3nc(SCCN4CCOCC4)nnc3c2c1 | inactive: -3.86% |  |
| COc1ccc(S(=O)(=O)N(C)CC(=O)NCCC2=CCCCC2)cc1 | inconclusive: 59% |  |
| COC(=O)[C@@]1(Cc2ccccc2)[C@H]2c3cc(C(=O)N(C)C)n(Cc4cc(F)c(F)c(F)c4)c3C[C@H]2CN1C(=O)c1ccccc1 | inactive: -15.9% |  |
| Clc1ccc(-c2nnc(-c3ccccc3)o2)c(Cl)c1 | inconclusive: 69.2% |  |
| Cn1c(=O)oc2cc(S(=O)(=O)N3CCC(C(=O)N4CC=C(c5ccccc5)CC4)CC3)ccc21 | inconclusive: 48.4% [at 2.3 µM] |  |
| CCC(CC)C(=O)Nc1nnc(SCC(=O)N2CCN(c3ccccc3OC)CC2)s1 | inconclusive: 48.2% |  |
| COc1ccc2c(c1)c(CC(=O)N1CCOCC1)c(C)n2C(=O)c1ccc(Cl)cc1 | inactive |  |
| CC(=O)N[C@@H](C(=O)O)C(C)(C)SN=O | inactive |  |
| Cc1nnc(SCC(=O)N(C)Cc2ccccc2)[nH]c1=O | inconclusive: 33.4% |  |
| Cc1ccc(-c2cc(C(F)F)nc(N3CCC(C)CC3)n2)cc1 |  | active: 25.1 µM [activator] |
| COc1ccc(C(=O)Nc2ccccc2C(=O)NC(C(=O)NCc2ccco2)C(C)C)cc1 (configuration not stated) | inconclusive: 64.7% |  |
| O=c1c2cn[nH]c2nc(SCc2ccc3c(c2)OCCO3)n1-c1ccccc1 | inconclusive: 23.1% |  |
| CCOC(=O)c1c(NC(=O)c2cccs2)sc2c1CC(C)(C)OC2 |  | inconclusive: 25.1 µM [activator, single point] |
| CN1CCN(c2cc(-c3ccoc3)ncn2)CC1 | inactive: -2.79% |  |
| Cc1cc(C(=O)CSc2nnc(-c3ccco3)o2)c(C)n1-c1ccc2c(c1)OCCO2 | inactive: -7.1% |  |
| O=C(Nc1c(C(=O)N2CCOCC2)cnn1-c1ccccc1Cl)c1ccco1 |  | inconclusive: 25.1 µM [activator, single point] |
| Cc1nc2ccccc2n1CC(=O)OCC(=O)Nc1ccc2c(c1)OCCO2 | inconclusive: 39% |  |
| CSc1nnc(C2CCCN2)n1C (configuration not stated) |  | inconclusive: 31.6 µM [inhibitor, single point] |

22 of the compounds above, as tab-separated lines.
Compound	activity change, negative = inhibition	Potency
COc1ccc(CCNC(=O)c2ccc(CNc3c(N4CCOCC4)c(=O)c3=O)cc2)cc1OC	inconclusive: 33.8%	
c1ccc(C2(Cn3ccc4ccccc43)OCCO2)cc1		inconclusive: 31.6 µM [activator, single point]
COc1cccc(Cn2c(=O)c(-c3cc(F)cc(F)c3)nc3cnc(N4CCN(C)CC4)nc32)c1	inconclusive: 103%	
O=C(NCC(=O)N(Cc1ccc(F)cc1)C(C(=O)NC1CCCC1)c1ccco1)c1ccco1 (configuration not stated)	inactive: -0.813%	
O=C(c1ccc(F)cc1)c1ccc(N2CCCC2)cc1		inconclusive: 25.1 µM [activator, single point]
CS(=O)(=O)N1CCC2(CC1)CN(Cc1nccs1)C2		inconclusive: 31.6 µM [inhibitor, partial curve]
Cc1ccc2[nH]c3nc(SCCN4CCOCC4)nnc3c2c1	inactive: -3.86%	
COc1ccc(S(=O)(=O)N(C)CC(=O)NCCC2=CCCCC2)cc1	inconclusive: 59%	
COC(=O)[C@@]1(Cc2ccccc2)[C@H]2c3cc(C(=O)N(C)C)n(Cc4cc(F)c(F)c(F)c4)c3C[C@H]2CN1C(=O)c1ccccc1	inactive: -15.9%	
Cn1c(=O)oc2cc(S(=O)(=O)N3CCC(C(=O)N4CC=C(c5ccccc5)CC4)CC3)ccc21	inconclusive: 48.4% [at 2.3 µM]	
COc1ccc2c(c1)c(CC(=O)N1CCOCC1)c(C)n2C(=O)c1ccc(Cl)cc1	inactive	
CC(=O)N[C@@H](C(=O)O)C(C)(C)SN=O	inactive	
Cc1nnc(SCC(=O)N(C)Cc2ccccc2)[nH]c1=O	inconclusive: 33.4%	
Cc1ccc(-c2cc(C(F)F)nc(N3CCC(C)CC3)n2)cc1		active: 25.1 µM [activator]
COc1ccc(C(=O)Nc2ccccc2C(=O)NC(C(=O)NCc2ccco2)C(C)C)cc1 (configuration not stated)	inconclusive: 64.7%	
O=c1c2cn[nH]c2nc(SCc2ccc3c(c2)OCCO3)n1-c1ccccc1	inconclusive: 23.1%	
CCOC(=O)c1c(NC(=O)c2cccs2)sc2c1CC(C)(C)OC2		inconclusive: 25.1 µM [activator, single point]
CN1CCN(c2cc(-c3ccoc3)ncn2)CC1	inactive: -2.79%	
Cc1cc(C(=O)CSc2nnc(-c3ccco3)o2)c(C)n1-c1ccc2c(c1)OCCO2	inactive: -7.1%	
O=C(Nc1c(C(=O)N2CCOCC2)cnn1-c1ccccc1Cl)c1ccco1		inconclusive: 25.1 µM [activator, single point]
Cc1nc2ccccc2n1CC(=O)OCC(=O)Nc1ccc2c(c1)OCCO2	inconclusive: 39%	
CSc1nnc(C2CCCN2)n1C (configuration not stated)		inconclusive: 31.6 µM [inhibitor, single point]
